The text below walks through data of publication PMC7819943, “Rice protein-binding microarrays: a tool to detect cis-acting elements near promoter regions in rice”.

This is one part of the list.

The experiment addresses T1, OsSMF1 (Oryza sativa, UniProt Q6ZLB0 1-436).
T1 sequence: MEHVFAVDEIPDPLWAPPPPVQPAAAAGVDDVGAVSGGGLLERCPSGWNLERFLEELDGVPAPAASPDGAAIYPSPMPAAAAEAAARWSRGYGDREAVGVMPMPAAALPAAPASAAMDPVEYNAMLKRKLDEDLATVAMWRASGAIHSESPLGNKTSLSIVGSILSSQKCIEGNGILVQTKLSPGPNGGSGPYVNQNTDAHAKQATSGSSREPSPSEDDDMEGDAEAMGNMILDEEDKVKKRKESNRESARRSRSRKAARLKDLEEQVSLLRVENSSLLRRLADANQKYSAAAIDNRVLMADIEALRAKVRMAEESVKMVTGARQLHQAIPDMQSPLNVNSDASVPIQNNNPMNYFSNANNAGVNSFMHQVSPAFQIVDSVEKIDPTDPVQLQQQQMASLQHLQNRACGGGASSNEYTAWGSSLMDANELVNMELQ
The experiment in a line: protein-binding microarray (RPBM); PBS, 2% BSA, 51.3 ng/ul salmon testes DNA, 50 uM zinc acetate, 200 nM TF, 25 C, 1 h; high values mean tight binding. Conditions: protein: recombinant; tags: N-terminal polyhistidine and DsRed monomer fusion (pET32a); chain copies: 2; label: CyDye5-dUTP incorporated in the synthesized complementary strand; 3' TTTTT single-stranded linker to array surface; dsDNA, one strand shown. The procedure, abridged:
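The binding signal is fluorescence intensity per array feature (arbitrary units). Readings came from an Axon 4000B scanner after a washed, 2% BSA-blocked, double-stranded custom Agilent array had been incubated for 1 h at 25 °C with 200 nM protein and 50 µM zinc acetate. The protein was a Ni–NTA-purified transcription factor fused N-terminally to polyhistidine and DsRed, expressed in E. coli BL21-CodonPlus.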
Turning to “AGTCTTTAACATGTGGACTCAGGATTCTTATGTGGCAATTCGGAGTCACCTAGTGCAG”, the binding signal was 7440 fluorescence intensity (a.u.). To “GTGGGGAAAGATAAGTGTGTGTGGGTGTGGCAATAAAGGTCGGAGTCACCTAGTGCAG” belongs 4030 fluorescence intensity (a.u.); to “CGAGATCTCATCGATCAGTCACAGTGACGCAGTGAGCACTCGGAGTCACCTAGTGCAG”, 5790 fluorescence intensity (a.u.); to “GGCGTCTTCCGCCACGACGACTGGATCGGCCGCCCCTTCGCGGAGTCACCTAGTGCAG”, 3350 fluorescence intensity (a.u.). On to “ATGTTTCTATGACATAAAGATCTAATGATAAATCATTTATCGGAGTCACCTAGTGCAG”, for which the binding signal was 4570 fluorescence intensity (a.u.). On to “GTTGAAGGTTCGCCGCGCCACGCATCAAACCATATCTGCACGGAGTCACCTAGTGCAG”, for which the binding signal was 4320 fluorescence intensity (a.u.). Turning to “GGAGGTGAGGATCAGAGGAGGCAGCCTCATCGTCATGCTTCGGAGTCACCTAGTGCAG”, the binding signal was 3410 fluorescence intensity (a.u.). As to “ACTGGTTTAGACGGTTACGTGTATGCCACTACGTACTTTTCGGAGTCACCTAGTGCAG”, the binding signal was 7360 fluorescence intensity (a.u.). “TCCTACCTCGATGTCGCGCGGCGGCCTCCTCTGACGCGGCCGGAGTCACCTAGTGCAG”: the binding signal is 5460 fluorescence intensity (a.u.). For the sequence “GTGATGCAGGCAAGAAACCCGGGCACACACATGGCTATTCCGGAGTCACCTAGTGCAG”, the binding signal was 24600 fluorescence intensity (a.u.). Turning to “CTTATTAACCCTTTCAAGTTCCACGTTAAAATTAGAAGTTCGGAGTCACCTAGTGCAG”, the binding signal is 38000 fluorescence intensity (a.u.). “CAAAGCTATACCAACTCAATTACAACTAGCTGTCACACTTCGGAGTCACCTAGTGCAG”: the binding signal was 36800 fluorescence intensity (a.u.). Take “AAATTTTGGCTCGAGTGCGTGTTACACGTGAACGCGGCAGCGGAGTCACCTAGTGCAG”: the binding signal is 4030 fluorescence intensity (a.u.). Turning to “CACGATCCTGGGTCGCGAGCGCGCCATCGTCGTCAACCTGCGGAGTCACCTAGTGCAG”, the binding signal is 3490 fluorescence intensity (a.u.).

Turning to “TACACTATTAATATCTGGTCCCACCTGTCATACACACACTCGGAGTCACCTAGTGCAG”, the binding signal is 3720 fluorescence intensity (a.u.). With “CACTACTGACAATTCATCGATCGATCACTGCGTGCTACTCCGGAGTCACCTAGTGCAG”, the binding signal is 3420 fluorescence intensity (a.u.). In the case of “GCCCAACTCTAACAAAAGCCTATTTAACATTACCGGCCCACGGAGTCACCTAGTGCAG” it was 3530 fluorescence intensity (a.u.); in that of “TTCCTTGTGTGAGGTCAGCACTATGTCTTTTCCATGCTACCGGAGTCACCTAGTGCAG”, 5810 fluorescence intensity (a.u.).

With “ATGGCTAATTATGGACTAATTAGACTCAAAAGATTCGTTTCGGAGTCACCTAGTGCAG”, the binding signal is 22500 fluorescence intensity (a.u.).

With “GGTAGTACCATGAAGAGCAAAATTAACGCGTCCTCCTCCCCGGAGTCACCTAGTGCAG”, the binding signal was 3520 fluorescence intensity (a.u.).

“AATCGCAGCGTTCCCCGTCCCTCTCTCTCCTTTCCTCCTCCGGAGTCACCTAGTGCAG”: the binding signal is 3160 fluorescence intensity (a.u.).

With “CAGCATGCATGCTCAGCGTCGTTGCCGTGTAGATATTCCCCGGAGTCACCTAGTGCAG”, the binding signal was 3450 fluorescence intensity (a.u.). “TCTCTCTGTGTGTGTTTGTGTCATATATGAGTTTGTGGGTCGGAGTCACCTAGTGCAG”: the binding signal is 7040 fluorescence intensity (a.u.). In the case of “GGTCATTCCCGAGTCCCCATCTGGCCATCTCTCCAATCTCCGGAGTCACCTAGTGCAG” it was 4460 fluorescence intensity (a.u.); in that of “AAAACATTATGATCAATTATACGTCGCCACGCCAGCTGTCCGGAGTCACCTAGTGCAG”, 6960 fluorescence intensity (a.u.).

For the sequence “ATTTTAATGAATCATCAGTAGCTGACGCCATGCCTTAGCCCGGAGTCACCTAGTGCAG”, the binding signal is 4080 fluorescence intensity (a.u.). For “ACCAGGCGACCAAGATGACGACTGTGTCAAAGCCTTTTCTCGGAGTCACCTAGTGCAG”, the binding signal was 4410 fluorescence intensity (a.u.).

In the case of “AAAATCCACTGTAACATTTGATCCGTACATAGTGAAACATCGGAGTCACCTAGTGCAG”, the binding signal was 38500 fluorescence intensity (a.u.). In the case of “GGGTGACGATTTTGTAATTCGATGACAAGTTGAGGGACCTCGGAGTCACCTAGTGCAG” it was 3660 fluorescence intensity (a.u.). As to “GTGAAAGACACGCCGAACATGGATGCCGTCTACACCTCCTCGGAGTCACCTAGTGCAG”, the binding signal was 3220 fluorescence intensity (a.u.). “GATTTACTCGCTCCAGATTAGCACACGCACGCACGTAGGGCGGAGTCACCTAGTGCAG”: the binding signal was 4620 fluorescence intensity (a.u.). “GCTTCCGCGTCACTCCGCTCGCCTCCAAAACCACACCGCGCGGAGTCACCTAGTGCAG”: the binding signal was 6860 fluorescence intensity (a.u.). In the case of “GATCGGATGCCACGTGTCGCGCGACACCCAAACCCACGGCCGGAGTCACCTAGTGCAG”, the binding signal is 12100 fluorescence intensity (a.u.).

Take “AAATCCATACACACGTCGATTCGTATCTGACTCGGTCTGCCGGAGTCACCTAGTGCAG”: the binding signal is 7910 fluorescence intensity (a.u.).

As to “TGTTTAAGTTTGTCCTAATTACCTGTCACATTTTCCGTGCCGGAGTCACCTAGTGCAG”, the binding signal was 4020 fluorescence intensity (a.u.).

As to “TGGACCTGAACCGAACCACTAAGTAGTAGTACGTGTGAGGCGGAGTCACCTAGTGCAG”, the binding signal is 41100 fluorescence intensity (a.u.). For the sequence “CCTTTTCCTCTCTCATAAAGTTACATCACCTTAGTTTTGCCGGAGTCACCTAGTGCAG”, the binding signal is 6080 fluorescence intensity (a.u.). As for “CTGCTGCCGTCGCAGAAGGTGCTGACATGGCCAGGGGTGGCGGAGTCACCTAGTGCAG”, the binding signal was 45300 fluorescence intensity (a.u.).

As to “GGAGTGAGGACTGAGGAGGAAGAAGAGGGCGGGATCTAGGCGGAGTCACCTAGTGCAG”, the binding signal is 17900 fluorescence intensity (a.u.). As to “CCTGAATTTGCTGGGATTTTACGAGAAATATAGCACAAGTCGGAGTCACCTAGTGCAG”, the binding signal is 33800 fluorescence intensity (a.u.).

As for “GCGTGGGCCCGCGCCGCCCGCCTGGGGACGACGGCGACGCCGGAGTCACCTAGTGCAG”, the binding signal is 3470 fluorescence intensity (a.u.).

As to “AATTTGTACGCGCGCATTCAGTTTTCATTTCAGTTCGAAACGGAGTCACCTAGTGCAG”, the binding signal is 3900 fluorescence intensity (a.u.).
